The other results are listed elsewhere or left out.
B1: il10ra_site1_normal_mot_HHH_b1_04175_af2_000000064_0001_24_41_H_._HHH_b2_08305_0001_0000400044_0000001_0_af2pred_0001 (protein)
chain: SSSSDVEEEVRELLEEAKHIEDPREAAEVLLKALELAYKNNDPELIQLVAKVARELKEEDSSSSS
B2: il10ra_site1_normal_mot_HHH_b2_08186_000000021_0001_43_56_H_._HHH_b2_05168_af2_0001_0000100001_0000002_0 (protein)
chain: SSSSSDEEVKEEVERLLEEAEHVSEEEAIRLLLKALRIAYENKDEELLQEIWEVLKELASSSSSS
B3: il10ra_site1_normal_mot_HHH_b2_02337_000000026_0001_38_52_H_._HHH_b2_04776_0001_0000400041_0000001_0 (protein)
chain: SSSSSSEEEEEIEELLERLERAKSDEEISEVALRLARLIWEANNSELLRLLWEIVKKLASSSSSS
B4: il10ra_site1_normal_mot_HHH_b1_03353_af2_000000170_0001_1_18_H_._HHH_b2_01529_0001_0000100007_0000001_0 (protein)
chain: SSSSTEAYEVARRAIEEAAKLLREGDDEQAREVLEEAIRIAEELGNFAAVFALEHLLRVLRSSSS
B5: il10ra_site1_normal_mot_HHH_b2_00076_000000055_0001_40_55_H_._HHH_b1_05082_0001_0000800045_0000001_0 (protein)
chain: SSSSSEEERVEELLEEAKRIPDPREVARLLQEATHIALRAGNQELLQEIYRVFREIIEELSSSSS
B6: il10ra_site1_normal_mot_HHH_b2_02337_000000026_0001_38_52_H_._HHH_b2_02614_0001_0000400012_0000001_0 (protein)
chain: SSSSSEEEEESERLLRELEELLKEGDEERFIQVAQRAARFAFERSDQELLRAIWELVKKLSSSSS
B7: il10ra_site1_sap_18_mot_HHH_b1_04015_af2_000000074_0001_1_17_H_._HHH_b1_07192_0001_0000100001_0000001_0_0001 (protein)
chain: SSSSSEEEEEIEELLEEAERLYKEGDPEEAIRLLLKATQLAIHAKNAELLRKVWRVFKELSSSSS
B8: il10ra_site1_normal_mot_HHH_b1_00456_000000263_0001_1_17_H_._HHH_b2_05371_0001_0000100004_0000001_0_af2pred_0001 (protein)
chain: SSSSSEIEEEVERLLEEAKHIEDPHERWEVLLKAFLLALKNNDEELKEEVKKVAKELTEGSSSSS
B9: il10ra_site1_sap_29_mot_HHH_b1_05426_000000183_0001_42_56_H_._HHH_b1_07722_af2_0001_0000100004_0000001_0_0001 (protein)
chain: SSSSSEEERVEELLEEVEELKKEGDEEEAIRVLQEAVRLAHQISDEELLREIWRLAKELGSSSSS
B10: il10ra_site1_normal_mot_HHH_b1_05357_000000034_0001_23_39_H_._HHH_b2_01646_0001_0000500028_0000001_0_af2pred_0001 (protein)
chain: SSSSSDEEEIREEVERLLEEAKHVSEHESAYLLIRAYALAYRGNDPELEELVKEVAIKLVSSSSS

Each binder was assayed against il10ra, Q13651 (assay: yeast display titration).

Apparent Kd, inactive:
B1 no binding seen
B2 no binding seen
B3 no binding seen
B4 no binding seen
B5 no binding seen
B6 no binding seen
B7 no binding seen
B8 no binding seen
B9 no binding seen
B10 no binding seen

Quoted at random: two records from the list
Apparent Kd, inactive:
B4 no binding seen
B1 no binding seen

From article PMC10163288
